Our source for the binding values is patent publication US20090285807A1 (METHERESIS TRANSLATIONAL RESEARCH, published 2009).

The chains behind the UniProt entries cited, without tags or fusion partners. Residues count along the entry.
UniProt P08581, residues 25-932: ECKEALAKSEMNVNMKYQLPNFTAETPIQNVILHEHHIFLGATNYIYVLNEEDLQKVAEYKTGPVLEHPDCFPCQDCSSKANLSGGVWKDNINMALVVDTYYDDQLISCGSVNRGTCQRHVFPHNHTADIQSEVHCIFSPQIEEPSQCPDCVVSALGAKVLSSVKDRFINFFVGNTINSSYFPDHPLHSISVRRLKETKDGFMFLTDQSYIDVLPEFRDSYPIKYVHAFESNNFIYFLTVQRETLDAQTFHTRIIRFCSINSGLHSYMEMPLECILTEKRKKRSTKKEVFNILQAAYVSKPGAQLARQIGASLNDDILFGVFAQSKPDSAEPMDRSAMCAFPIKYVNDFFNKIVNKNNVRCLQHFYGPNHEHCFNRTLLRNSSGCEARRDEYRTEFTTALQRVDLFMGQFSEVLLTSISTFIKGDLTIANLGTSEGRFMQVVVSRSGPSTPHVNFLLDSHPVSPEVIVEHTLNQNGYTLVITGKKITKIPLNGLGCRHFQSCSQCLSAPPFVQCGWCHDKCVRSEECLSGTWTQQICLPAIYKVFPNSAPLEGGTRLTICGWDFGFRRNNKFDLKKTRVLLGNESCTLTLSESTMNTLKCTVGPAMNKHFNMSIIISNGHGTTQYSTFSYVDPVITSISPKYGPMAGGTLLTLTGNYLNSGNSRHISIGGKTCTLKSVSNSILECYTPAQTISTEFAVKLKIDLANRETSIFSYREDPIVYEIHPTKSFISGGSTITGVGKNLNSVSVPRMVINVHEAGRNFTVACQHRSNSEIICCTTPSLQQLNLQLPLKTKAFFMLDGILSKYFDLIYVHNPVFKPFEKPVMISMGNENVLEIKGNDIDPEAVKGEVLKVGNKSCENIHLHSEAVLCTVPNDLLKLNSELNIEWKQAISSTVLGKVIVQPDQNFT

Results are given in words; binding and its absence hold for the method and conditions named. Some entries that bind do so weakly or less than the wild type.

Experiment [1] addresses purified MET extracellular domain fused to the Fc domain derived from Human Ig (UniProt P08581). As to the kind of experiment: ELISA on plates coated with MET extracellular domain-Fc (100 ng/well), antibody 0 to 5.5 nM.
The target is the same in experiment [2]. As to the kind of experiment: ELISA on plates coated with MET extracellular domain-Fc (FIG. 11B). On the technique in general: An ELISA detects its analyte on a solid surface through an enzyme-linked reagent.

B1: recombinant AntiMET-R produced by carcinoma cell lines transduced with the bi-directional lentiviral vector carrying AntiMET-R cDNAs (antibody, mouse IgG2a, kappa, V domains shown)
VH: QVQLQQPGTELVKPGASVKLSCKASGYTFTSYWIHWVKQRPGQGLEWIGEINPSSGRTNYNEKFKNKVTVTVDKSSTTAYMQLSNLTSEDSAVYYCASRGYWGQGTTLTVSS
VL: DIVLTQSPASLAVSLGQRATISCKASQSVDYDGGSYMSWFQQRPGQPPKLLISAASNLESGIPARFSGSGSGTDFTLNIHPVEEEDVATYYCQQSYEDPLTFGAGTKLELKR
As to B1, the binding result in experiment [1] and in experiment [2] was “binds” each time.

B2: AntiMET-R, anti-Met monoclonal antibody produced by the hybridoma cell line ICLC PD 05006 (antibody, mouse IgG2a, kappa, V domains shown)
VH: B1 VH
VL: B1 VL
notes: Mouse monoclonal antibody from a hybridoma; They may include leader peptides; also called purified AntiMET-R
As to B2, in experiment [2], the binding entry is given as “binds”.
